Results reported in patent US20180325981A1 (published 2018).
Results are given in words; binding and its absence hold for the method and conditions named. Some entries that bind do so weakly or less than the wild type.

Key:
[1] = target: T1, purified recombinant ADIPOR1 (A88) (UniProt Q96A54); experiment: SPR, immobilised ADIPOR1
T1 sequence: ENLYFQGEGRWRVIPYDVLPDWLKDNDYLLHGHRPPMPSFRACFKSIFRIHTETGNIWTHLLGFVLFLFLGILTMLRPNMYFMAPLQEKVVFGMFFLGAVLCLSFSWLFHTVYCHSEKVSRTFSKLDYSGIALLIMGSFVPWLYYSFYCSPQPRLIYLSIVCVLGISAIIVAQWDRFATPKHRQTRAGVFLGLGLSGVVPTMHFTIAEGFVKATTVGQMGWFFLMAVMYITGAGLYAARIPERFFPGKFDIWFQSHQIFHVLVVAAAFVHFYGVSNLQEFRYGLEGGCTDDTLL

[2] = target: T1, purified recombinant ADIPOR1 (A88); experiment: SPR, ADIPOR1 amine-coupled to CM5 chip, peptide injected
[3] = target: T1, purified recombinant ADIPOR1 (A88); experiment: SPR; recombinant ADIPOR1 amine-coupled to a CM5 chip, peptide injected at 2.5 to 100 uM
[4] = target: T1, purified recombinant ADIPOR1 (A88); experiment: SPR; recombinant ADIPOR1 amine-coupled to a CM5 chip, peptide injected at 0.5 to 50 uM
[5] = target: T1, purified recombinant ADIPOR1 (A88); experiment: SPR; recombinant ADIPOR1 amine-coupled to a CM5 chip, peptide injected at 1.56 to 50 uM

B1: peptide 3-1 (peptide)
peptide: YYFAYHPNIPGLYYF
notes: Synthetic 3rd round agonist peptide designed for the adiponectin receptor
In the case of B1, the binding [1] is reported as “binds”, the binding [2] is reported as “binds” and the binding [3] is reported as “binds”.

B2: 3-3 (peptide)
peptide: NIPGLWYFAY
notes: 3rd round synthetic peptide; also called peptide 3-3
With B2 the binding [4] was “binds”.

B3: 3-4 (peptide)
peptide: NIPGLFYFAY
notes: 3rd round synthetic peptide; also called peptide 3-4
With B3 the binding [4] was “binds”.

With WYFAYHPNIPGLWYF (Synthetic 4th round agonist peptide) [peptide 4-3] the binding [1] was “binds” and the binding [5] was “binds”.

With FYFAYHPNIPGLFYF (Synthetic 4th round agonist peptide) [peptide 4-4] the binding [1] was “binds” and the binding [5] was “binds”.
